Data from article PMC13546301.
These are yes or no findings as the source states them, for the method shown. Some binding calls cover weakened binding; strength is not graded here.

The chains behind the UniProt entries cited, without tags or fusion partners. Residues count along the entry.
UniProt Q64487, residues 21-1912: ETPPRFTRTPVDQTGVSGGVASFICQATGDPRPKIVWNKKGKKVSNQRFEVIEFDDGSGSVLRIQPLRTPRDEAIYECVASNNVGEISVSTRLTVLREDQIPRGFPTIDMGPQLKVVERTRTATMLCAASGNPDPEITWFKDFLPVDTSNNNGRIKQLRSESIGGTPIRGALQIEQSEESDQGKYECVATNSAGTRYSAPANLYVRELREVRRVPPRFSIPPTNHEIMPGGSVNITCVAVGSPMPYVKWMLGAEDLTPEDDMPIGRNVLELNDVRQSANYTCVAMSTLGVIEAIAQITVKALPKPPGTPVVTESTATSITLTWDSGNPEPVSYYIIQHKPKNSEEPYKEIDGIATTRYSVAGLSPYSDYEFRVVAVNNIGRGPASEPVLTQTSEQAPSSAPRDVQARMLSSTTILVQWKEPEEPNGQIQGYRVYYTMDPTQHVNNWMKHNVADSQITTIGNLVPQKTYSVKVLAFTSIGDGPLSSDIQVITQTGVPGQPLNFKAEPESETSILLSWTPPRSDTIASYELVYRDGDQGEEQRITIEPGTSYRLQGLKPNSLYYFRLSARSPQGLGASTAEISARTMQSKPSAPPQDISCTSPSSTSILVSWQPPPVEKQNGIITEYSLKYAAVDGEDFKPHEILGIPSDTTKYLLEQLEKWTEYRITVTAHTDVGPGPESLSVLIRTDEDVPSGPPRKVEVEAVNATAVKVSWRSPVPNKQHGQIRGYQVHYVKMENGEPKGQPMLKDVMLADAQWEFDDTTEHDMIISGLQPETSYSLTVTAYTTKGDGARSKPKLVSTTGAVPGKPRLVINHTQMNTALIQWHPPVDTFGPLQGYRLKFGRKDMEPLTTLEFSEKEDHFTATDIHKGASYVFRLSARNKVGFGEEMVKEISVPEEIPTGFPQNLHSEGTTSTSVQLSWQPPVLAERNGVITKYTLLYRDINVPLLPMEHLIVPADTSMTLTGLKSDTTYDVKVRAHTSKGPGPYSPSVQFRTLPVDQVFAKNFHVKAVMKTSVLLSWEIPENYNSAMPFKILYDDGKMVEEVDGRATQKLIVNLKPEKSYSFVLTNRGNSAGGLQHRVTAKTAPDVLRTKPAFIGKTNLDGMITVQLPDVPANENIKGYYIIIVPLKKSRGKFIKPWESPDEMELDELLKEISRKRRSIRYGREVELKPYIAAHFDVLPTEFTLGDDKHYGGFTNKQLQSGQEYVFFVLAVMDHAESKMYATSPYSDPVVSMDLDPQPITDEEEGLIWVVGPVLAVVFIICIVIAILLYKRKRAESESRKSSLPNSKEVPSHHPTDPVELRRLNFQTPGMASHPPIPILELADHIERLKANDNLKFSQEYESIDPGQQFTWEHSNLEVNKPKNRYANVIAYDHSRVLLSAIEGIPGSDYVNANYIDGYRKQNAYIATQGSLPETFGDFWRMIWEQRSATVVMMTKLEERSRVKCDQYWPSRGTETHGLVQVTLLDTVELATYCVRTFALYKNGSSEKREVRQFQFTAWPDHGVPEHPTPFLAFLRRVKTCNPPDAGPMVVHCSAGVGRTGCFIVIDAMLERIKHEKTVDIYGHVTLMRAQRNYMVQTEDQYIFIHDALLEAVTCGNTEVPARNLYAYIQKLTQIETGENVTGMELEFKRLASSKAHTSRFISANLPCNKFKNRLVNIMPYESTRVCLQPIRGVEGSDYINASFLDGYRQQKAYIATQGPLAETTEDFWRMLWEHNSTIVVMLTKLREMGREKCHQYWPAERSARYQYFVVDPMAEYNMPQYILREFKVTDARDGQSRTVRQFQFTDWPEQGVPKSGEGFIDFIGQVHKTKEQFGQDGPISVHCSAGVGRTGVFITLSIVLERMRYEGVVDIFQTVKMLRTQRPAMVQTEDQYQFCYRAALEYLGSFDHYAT
UniProt Q9CS84, residues 31-1514: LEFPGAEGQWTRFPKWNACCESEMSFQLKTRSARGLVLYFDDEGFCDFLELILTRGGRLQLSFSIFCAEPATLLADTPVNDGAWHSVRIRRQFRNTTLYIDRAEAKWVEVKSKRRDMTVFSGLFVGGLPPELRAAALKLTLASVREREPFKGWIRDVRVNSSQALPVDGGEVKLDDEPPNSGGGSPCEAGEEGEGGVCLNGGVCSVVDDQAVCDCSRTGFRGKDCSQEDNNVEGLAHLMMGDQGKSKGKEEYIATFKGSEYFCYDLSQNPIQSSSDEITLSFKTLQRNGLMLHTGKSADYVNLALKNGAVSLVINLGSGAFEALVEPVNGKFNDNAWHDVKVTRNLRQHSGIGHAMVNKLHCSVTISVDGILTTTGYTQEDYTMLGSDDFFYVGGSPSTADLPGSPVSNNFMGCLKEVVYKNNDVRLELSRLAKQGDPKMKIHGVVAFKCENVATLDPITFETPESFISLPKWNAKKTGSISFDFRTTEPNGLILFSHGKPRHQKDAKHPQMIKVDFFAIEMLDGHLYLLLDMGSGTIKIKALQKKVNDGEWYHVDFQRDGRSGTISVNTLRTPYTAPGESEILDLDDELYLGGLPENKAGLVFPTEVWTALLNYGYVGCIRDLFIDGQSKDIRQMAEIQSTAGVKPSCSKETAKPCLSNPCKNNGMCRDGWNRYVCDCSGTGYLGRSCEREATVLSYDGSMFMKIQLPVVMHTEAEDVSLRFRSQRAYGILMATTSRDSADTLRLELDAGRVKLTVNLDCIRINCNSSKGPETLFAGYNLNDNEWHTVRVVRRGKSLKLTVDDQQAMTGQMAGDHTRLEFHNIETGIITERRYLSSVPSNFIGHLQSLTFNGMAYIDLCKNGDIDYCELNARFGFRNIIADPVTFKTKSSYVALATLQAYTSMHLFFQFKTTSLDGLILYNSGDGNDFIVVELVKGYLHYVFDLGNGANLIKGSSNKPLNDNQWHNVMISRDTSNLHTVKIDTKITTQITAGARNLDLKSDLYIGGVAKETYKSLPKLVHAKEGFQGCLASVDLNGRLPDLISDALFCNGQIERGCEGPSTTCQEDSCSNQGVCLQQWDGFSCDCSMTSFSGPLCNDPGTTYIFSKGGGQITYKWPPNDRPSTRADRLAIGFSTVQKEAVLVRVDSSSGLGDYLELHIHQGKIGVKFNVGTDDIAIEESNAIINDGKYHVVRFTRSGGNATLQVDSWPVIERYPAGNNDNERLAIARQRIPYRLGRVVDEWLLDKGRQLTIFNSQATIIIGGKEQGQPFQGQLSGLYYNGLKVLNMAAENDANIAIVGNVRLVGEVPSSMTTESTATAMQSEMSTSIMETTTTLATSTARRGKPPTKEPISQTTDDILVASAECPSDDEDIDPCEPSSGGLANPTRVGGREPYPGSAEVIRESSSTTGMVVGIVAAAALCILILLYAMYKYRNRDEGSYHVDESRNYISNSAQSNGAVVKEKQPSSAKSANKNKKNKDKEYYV
UniProt B0V2N1, residues 30-1907: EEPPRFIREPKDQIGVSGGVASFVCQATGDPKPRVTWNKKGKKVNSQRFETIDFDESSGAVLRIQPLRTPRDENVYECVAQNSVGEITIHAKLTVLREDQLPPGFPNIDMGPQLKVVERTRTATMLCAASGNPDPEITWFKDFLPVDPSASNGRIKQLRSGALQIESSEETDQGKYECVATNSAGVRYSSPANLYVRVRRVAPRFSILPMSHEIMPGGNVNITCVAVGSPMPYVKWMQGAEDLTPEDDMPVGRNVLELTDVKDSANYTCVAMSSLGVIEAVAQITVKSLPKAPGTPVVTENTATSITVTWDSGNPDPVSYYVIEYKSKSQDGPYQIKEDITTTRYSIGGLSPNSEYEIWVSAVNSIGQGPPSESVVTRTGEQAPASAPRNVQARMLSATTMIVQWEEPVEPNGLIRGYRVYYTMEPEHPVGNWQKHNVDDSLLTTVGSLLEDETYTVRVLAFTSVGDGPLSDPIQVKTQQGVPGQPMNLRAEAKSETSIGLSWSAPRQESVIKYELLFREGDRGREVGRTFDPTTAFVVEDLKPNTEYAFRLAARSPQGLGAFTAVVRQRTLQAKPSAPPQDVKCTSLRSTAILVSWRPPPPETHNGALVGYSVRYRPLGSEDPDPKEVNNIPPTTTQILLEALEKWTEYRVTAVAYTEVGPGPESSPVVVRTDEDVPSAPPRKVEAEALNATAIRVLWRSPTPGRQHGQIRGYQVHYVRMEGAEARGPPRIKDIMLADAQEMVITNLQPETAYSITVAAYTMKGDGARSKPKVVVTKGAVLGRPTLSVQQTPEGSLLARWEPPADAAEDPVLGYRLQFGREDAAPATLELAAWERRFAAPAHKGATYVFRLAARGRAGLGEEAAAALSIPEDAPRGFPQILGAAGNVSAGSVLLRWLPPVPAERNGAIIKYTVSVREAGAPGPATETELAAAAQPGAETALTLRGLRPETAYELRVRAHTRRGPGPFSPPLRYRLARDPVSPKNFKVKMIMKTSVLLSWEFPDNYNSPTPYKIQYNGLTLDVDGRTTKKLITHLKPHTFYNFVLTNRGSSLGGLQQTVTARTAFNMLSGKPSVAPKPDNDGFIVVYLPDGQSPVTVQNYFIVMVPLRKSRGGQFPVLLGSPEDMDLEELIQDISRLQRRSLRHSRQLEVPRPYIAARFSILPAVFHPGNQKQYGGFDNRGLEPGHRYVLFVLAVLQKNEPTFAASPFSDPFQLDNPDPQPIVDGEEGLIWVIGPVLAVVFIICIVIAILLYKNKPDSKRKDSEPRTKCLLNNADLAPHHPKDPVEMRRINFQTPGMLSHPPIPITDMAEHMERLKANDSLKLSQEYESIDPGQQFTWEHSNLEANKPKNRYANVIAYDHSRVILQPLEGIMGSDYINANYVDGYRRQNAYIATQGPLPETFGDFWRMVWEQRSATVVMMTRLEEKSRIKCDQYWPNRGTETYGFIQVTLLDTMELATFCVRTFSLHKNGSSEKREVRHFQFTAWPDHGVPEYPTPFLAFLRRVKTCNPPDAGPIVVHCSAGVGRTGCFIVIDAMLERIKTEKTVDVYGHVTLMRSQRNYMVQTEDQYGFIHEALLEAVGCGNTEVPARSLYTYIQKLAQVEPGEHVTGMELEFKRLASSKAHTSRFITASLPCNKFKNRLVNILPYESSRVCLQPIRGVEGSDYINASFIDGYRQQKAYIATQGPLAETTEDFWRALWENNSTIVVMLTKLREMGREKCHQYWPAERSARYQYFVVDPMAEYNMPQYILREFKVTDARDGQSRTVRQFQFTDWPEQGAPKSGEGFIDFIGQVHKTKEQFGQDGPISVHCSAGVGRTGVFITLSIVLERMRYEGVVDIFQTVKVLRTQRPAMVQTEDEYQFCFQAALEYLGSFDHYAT

Key:
Test in all cases: native gel or EMSA; csBN-MS complexome profiling (cryo-slicing blue native gel, 359 slices, quantitative MS) of CL-47-solubilised ER-enriched membrane fractions of adult mouse brain
[1] = target: Receptor-type tyrosine-protein phosphatase D (mouse (endogenous in mouse brain)) (UniProt Q64487)
[2] = target: Neurexin-1-alpha (mouse (endogenous in mouse brain)) (UniProt Q9CS84)
[3] = target: Receptor-type tyrosine-protein phosphatase S (mouse (endogenous in mouse brain)) (UniProt B0V2N1)

binding [1]: binds | binding [2]: binds | binding [3]: binds
B1: Transmembrane protein 178A (protein, UniProt Q9CZ16 26-297)
chain: IFTDHWYETDPRRHKESCERSRAGADPPDQKNRLMPLSHLPLRDSPPLGRRLLPGGPGRSDPESWRSLLGLGGLDAECGRPLFATYSGLWRKCYFLGIDRDIDTLILKGIAQRCTAIKYHFSQPIRLRNIPFNLTKTIQQDEWHLLHLRRITAGFLGMAVAVLLCGCIVATVSFFWEESLTQHVAGLLFLMTGIFCTISLCTYAASVSYDLNRVPKLIYSLPHDVEHGYSWSIFCAWCSLGFIVAAGGLCIAYPFISRTKIAHLKSGRDSTV
